Source: ChEMBL document CHEMBL3988442, “University of Dundee, Small-Polar-MMV Screening Library” (2021).

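Growth of Mycobacterium tuberculosis over 4 days (cholesterol / DPPC medium with tyloxapol); the read-out is not stated. Tested at 500 µM. Direction is inferred from retests: higher values go with more growth inhibition. About 18,000 compounds were tested under these conditions; 5% (about 900) showed 50% or more at least once.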

Results are given as percent effect.
The record does not define 0% and 100%; most values in the screen are far below 50% and negative numbers occur (in some assays of this library far below -100).
Compounds were drawn at random from those tested, without regard to their results.

Compound	percent effect
CC(O)CCN(C)c1nccnc1C#N (centres unmarked)	-3.621%
CCOc1ccccc1CNC(=O)C1CCN(C)CC1	19.68%
CC(CO)Sc1ccc(S(=O)(=O)C(F)F)cc1 (centres unmarked)	73.96%
CCCn1ccnc1CNC(=O)c1cn(CCN)nn1	-4.794%
CN(C)C(=O)CN(C)S(=O)(=O)c1ccccc1Cl	6.527%
Cc1nnc(CCNC(=O)C2CC(=O)N(C)C2(C)C)s1 (centres unmarked)	-5.287%
OCc1cnn(CC(F)(F)F)c1	-6.783%
CN(C)CCNC(=O)NC1CCCCC1	22.03%
O=C(CCC(F)(F)F)N[C@@H]1c2ccccc2C[C@@H]1O	35.38%
O=C1CC(COC(=O)c2ncccc2C(F)(F)F)CN1 (centres unmarked)	-0.1737%
COC(CN)C1CC1 (centres unmarked)	-5.229%
O=C(Cc1c[nH]c2ccccc12)N[C@@H]1CCOC[C@H]1O	-5.212%
CCN1C[C@@H](CO)[C@H](c2nc(C3CC3)no2)C1	2.358%
N#CC1CCCOC1 (centres unmarked)	-1.677%
COc1ccccc1NC(=O)NC1CCN(C)CC1	5.118%
N[C@H]1CN(C(=O)COCc2ccccc2)C[C@@H]1C1CC1	19.02%
Cc1cccc(N(CCC(N)=O)C(=O)C2CCC2)c1	18.02%
CNCCCOC(C)C	-5.935%
CN1CCN(CCCNC(=O)c2ccccc2Cl)CC1	6.859%
CC(=O)c1ccc(C(=O)NCC(C)CO)cc1 (centres unmarked)	10.17%
CCc1ccsc1C(=O)NCC1CN(C)CCO1 (centres unmarked)	8.396%
CCN1CCCC1CNC(=O)c1ccc(C(C)=O)s1 (centres unmarked)	-21.96%
CCNC(=O)N1CCC(Nc2cccnc2)C1 (centres unmarked)	0.7612%
CCOc1ccc(NC(=O)CNC2CC2)cc1	0.2606%
CC(O)CN(C(=O)NCCCn1ccnc1)C(C)C (centres unmarked)	11.17%
CNC(=O)C1CCN(CCCOc2ccccc2)CC1	3.056%
Cc1[nH]c(=O)[nH]c(=O)c1CCC(=O)Nc1nccs1	-11.17%
CC(=O)Nc1c[nH]nc1C1CCCNC1 (centres unmarked)	-21.96%
CC(=O)N1CCCN(C(=O)Cc2ccccc2C)CC1	0.9804%
CC1(C)CC(NC(=O)c2ccc(O)cc2F)CCO1 (centres unmarked)	1.468%
Cc1cnc(NCC(O)CN2CCCCC2)nc1 (centres unmarked)	1.338%
CCCNC(=O)c1ccc(CN2CCCC2)cc1	15.53%
CC(CN1CCCC1=O)NCc1ccc(C#N)cc1 (centres unmarked)	-0.4956%
COC[C@@H](O)Cn1ccnc1C(=O)c1ccccc1	7.339%
OCC1CCCN(Cc2ccc(O)cc2)C1 (centres unmarked)	10.32%
NC(=O)CN1CCCN(C(=O)c2cc(Br)cs2)CC1	7.238%
CCOc1cccc(C(C)NC(=O)CNC(C)=O)c1 (centres unmarked)	13.06%
COc1ccccc1OCCN1CCN(CCO)CC1	-4.525%
CC(C)[C@H]1CN(CCC(=O)NC2CCCC2)C[C@@H]1N	6.225%
O=C(Cn1ccc2ccccc21)N1CCCC1	57.81%
COc1ccccc1NC(=O)N1CCCN(C)CC1	9.988%
CCNC(=O)c1ccc(=O)n(Cc2ccccc2)n1	7.827%
CNCC1(O)CCCC1	-7.735%
COc1ccccc1-c1noc(C(C)N)n1 (centres unmarked)	3.508%
C1C[C@@H]2CNC[C@@H]2O1	8.212%
NC1CC(=O)N(C2CCCCC2)C1 (centres unmarked)	0.8444%
O=S(=O)(CCCF)NCc1ccncc1	-0.03795%

4 of the entries, repeated:

Compound,percent effect
COC[C@@H](O)Cn1ccnc1C(=O)c1ccccc1,7.339%
CNCC1(O)CCCC1,-7.735%
CNCCCOC(C)C,-5.935%
Cc1nnc(CCNC(=O)C2CC(=O)N(C)C2(C)C)s1 (centres unmarked),-5.287%